From US5948406A, “Immunogens, antibodies formed therefrom, and coating antigens useful in a diacylhydrazine immunoassay method” (Rohm and Haas Company, priority 1997, dated 1999) come the findings set out here.

The test system of data set [1] is Protein A purified IgG (rabbit antibodies to diacyl hydrazines). Kind of data set: Indirect immunoassay (inhibition of purified IgG binding to RH2703-BSA coating antigen). The following applies: indirect assay; for Detection limit: three times the background noise. From the text:
(§1) As used herein the term "IC50 " is defined as the concentration of the inhibitor required to reduce the absorbance to one-half the absorbance measured when no inhibitor was present. This determination is accomplished by plotting the percent (%) activity remaining versus the concentration of the inhibitor where the percent (%) activity remaining is given by:
(§2) % activity=(Ao -Ai /Ao)×100
(§3) where Ao is the measured absorbance when no inhibitor is present and Ai is the measured absorbance at the i^th concentration of inhibitor. The percent inhibition is then given by the relationship 100-(% activity).
The percent cross reactivity was derived by the equation: […]
where IC50,5992 is the IC50 concentration for RH5992 as determined above and IC50,analog is the IC50 concentration of the analog, i.e., RH2703, RH2651, and RH0345.
(§4) Sensitivity in ng is calculated from the concentration of the inhibitor determined from regression analysis of the standard deviations of the replicate analyses of the standard concentrations as described in the equation: […]
(§5) where S is the sensitivity in ng, Yint is the Y-intercept of the regression line from the standard deviations of the replicate analyses in absorbance units, m is the slope of the regression line in absorbance units per ng/ml and V is the volume of sample applied to the microtiter plate in ml.
RH2703-BSA was used as the coating antigen. The concentration required to give a readable response (0.3-0.5 absorbance units @ 410 nm) in the presence of the minimum quantity of antigen (RH2703) was optimized in the presence of a constant amount of protein A purified IgG (10 μl of a 20 μg/ml solution, 100 ng/well) by a checkerboard type assay (see Voller et al, Bull of World Health Organization, 53, 35 (1976)). The concentration of the Protein A purified IgG had been previously optimized in the presence of a constant amount of coating antigen (RH2703-BSA, 100 μl of a 10 μg/ml solution) to give a readable response to the minimum amount of RH5992.
Antibody concentration was optimized to be approximately 20 μg/ml (100 ng per micro well) and the coating antigen was optimized to be 25 ng/ml or 2.5 ng per micro well. When converted to a molar basis and assuming a hapten/protein binding ratio of 55, the hapten is in a three-fold molar excess of the IgG added.
The percent inhibition for RH2703, RH2651, RH5992, RH0345 and RH2485 were determined to the protein IgG in the presence of the optimized concentration of RH2703-BSA coating antigen. Each test substance was assayed at seven concentrations ranging from no test substance 0 ng/ml to 1000 ng/ml. The assay at each concentration was replicated seven times. Antigen negative and antibody negative wells provided negative controls while KLH/anti-KLH wells were used as positive controls.
Serial dilutions of the test substance stock solutions were made with coating buffer containing 0.1% TWEEN 20 polysorbate to give 1000 ng/ml, 100 ng/ml, 10 ng/ml, 1 ng/ml, 0.1 ng/ml, and 0.01 ng/ml assay concentrations. Coating buffer w/0.1% TWEEN 20 polysorbate was used as the 0 ng/ml assay concentration. The test substance assay concentrations (190 μl each) were incubated with 10 μl of the protein A IgG ([…]) for one hour at room temperature. After the incubation period, 100 μl of the test substance-IgG mixture was transferred to the appropriate microtiter well. The microtiter wells had been previously coated with the optimized concentration of RH2703-BSA and the excess protein binding sites were blocked with 0.3 ml of a 1% BSA solution in coating buffer. The plates were incubated for an additional hour at room temperature.
After the second incubation the plates were washed and goat, anti-rabbit immunoglobulin conjugated to alkaline phosphatase (0.6 mg reconstituted with 1 ml 50% glycerol and subsequently diluted with 1:5000 with blocking solution Pierce Chemical Co) was added. The plates were incubated, washed and PNPP substrate added as described in Example 5. […]

The subject of data set [2] is ^2651 IgG (coating antibody). Kind of data set: Direct assay (competition with 2651-HRP for immobilized ^2651 IgG coating antibody). The format is binding, rabbit.
Excerpt: as §1, §2, §3, §4, §5
A microplate was coated with ^2651 IgG. Starting with column 1, 100 μl of 10 μg/ml ^2651 IgG were added to each well and 1:2 serial dilutions made across the plate. The plate was sealed and stored at 4° C. until ready to use. After emptying, the plate was washed with 0.01% Tween 20 in PBS and blocked with 1% BSA in PBS for about 1 hour at room temperature. After blocking, the plate was emptied and 150 μl PBS added to each well. Then 50 μl of 2651-HRP dilutions were added down the plate starting with 10 μg/ml and continuing with 1:2 dilutions down the plate. After a 1 hour room temperature incubation, the plate was washed as before and 150 μl 1-Step® Slow-TMB (peroxidase substrate from Pierce Chemical Co.) was added to each well. After one hour development, 150 μl of 1N H2 SO4 was added to stop the reaction and the absorbance of each well measured at 450 nm with the Dynatech MR5000 Microplate Reader. Controls included wells with no coating antibody and wells in which no 2651-HRP were added. A ^2651 IgG coating antibody concentration of 0.625 μg/ml and a 2561-HRP concentration of 1.25 μg/ml were determined to be the optimum concentration for use with 1-Step® Slow-TMB substrate.
The wells of a microplate were coated with 100 μl each of 0.625 μg/ml ^2651 IgG. One row was left uncoated as a control. The plate was kept at 4° C. overnight. The following day the plate was washed with 0.01% Tween 20 polysorbate in PBS and blocked with 1% BSA in PBS for at least 30 minutes. Standard solutions of RH5992, RH2651, RH2703, and RH2485 were made from 1 mg/ml stock solutions. Standard solutions of RH0345 were prepared from a 0.1 ng/ml, 0.5 ng/ml, 1 ng/ml, 5 ng/ml, 10 ng/ml, 50 ng/ml, and 100 ng/ml. After the blocking lo solution was emptied, 150 μl of the standards were added to the appropriate wells. For the zero control 150 μl of PBS was added. After a 45 minute incubation at room temperature, 50 μl of 1.25 μg/ml 2651-HRP were added to each well and the plate agitated to mix the contents. […] After incubation for 45 minutes at room temperature, the plate was washed as before and 150 μl 2651-HRP was added to each well and the plate agitated to mix the contents. […] After incubation for 45 minutes at room temperature, the plate was washed as before and 150 μl Step 1® Slow TMB added to each well. After 2 hours at room temperature, 150 μl 1N H2 SO4 was added to each well and the absorbance read at 450 nm with the Dynatech MR5000 Microplate Reader.
FIG. 16a illustrates a typical curve generated from the assay. The linear portion of the curve is visualized between 0.01 ng/ml and 10 ng/ml. A typical standard curve in the linear range of the assay is illustrated by FIG. 16b using inverse absorbances to generate a positive slope. The limit of detection was calculated as 0.096 ng/ml and the sensitivity calculated as 0.005 ng for RH5992.

Several values for one entry are separate records, joined by “and”; a condition that tells them apart may be missing. Equal values may be shown once.

In the case of `CC(C)(C)N(NC(=O)c1ccc(Cl)cc1)C(=O)c1ccccc1` [RH0345], in data set [1], the Sensitivity came out at 0.08 ng and the Detection limit is 0.75 ng/mL. In data set [2], the Detection limit came out at 5.10 ng/mL and the Sensitivity is 0.255 ng.

`COc1cccc(C(=O)NN(C(=O)c2cc(C)cc(C)c2)C(C)(C)C)c1C` [RH2485]: the Sensitivity is reported as 0.08 ng in data set [1] and 0.024 ng in data set [2]. Also, the Detection limit in data set [1] was 1.8 ng/mL; in data set [2] it was 0.482 ng/mL.

On to `Cc1cc(C)cc(C(=O)N(NC(=O)c2ccc(C(=O)O)cc2)C(C)(C)C)c1` [RH2651], for which the Sensitivity in data set [1] was determined as 0.22 ng; in data set [2] it was 0.001 ng. Besides, the Detection limit in data set [1] worked out at 1.9 ng/mL; in data set [2], 0.013 ng/mL.

Regarding `Cc1cc(C)cc(C(=O)N(NC(=O)c2ccc(CC(=O)O)cc2)C(C)(C)C)c1` [RH2703], in data set [1], the Sensitivity worked out at 0.19 ng and the Detection limit turned out to be 1.7 ng/mL. Besides, in data set [2], the Detection limit is 0.031 ng/mL and the Sensitivity stood at 0.002 ng.

For the molecule `CCc1ccc(C(=O)NN(C(=O)c2cc(C)cc(C)c2)C(C)(C)C)cc1` [RH5992], in data set [1], the Sensitivity was determined as 0.07 ng and the Detection limit worked out at 0.66 ng/mL. For the same molecule, in data set [2], the Detection limit is 0.096 ng/mL and 0.106 ng/mL; the Sensitivity was found to be 0.005 ng.
